# Measured values as given in PMC10353189, “Hybridization of the effective pharmacophores for treatment of epilepsy: design, synthesis, in vivo anticonvulsant activity, and in silico studies of phenoxyphenyl-1,3,4-oxadiazole-thio-N-phenylacetamid hybrids” (BMC Chemistry, 2023).
# Experiments:
# [1] = system: PTZ-induced lethal convulsion in mice; experiment: Pentylenetetrazole (PTZ) induced seizure test; assay type: in vivo, Male NMRI mice; settings: dose 2 mg/kg ip, with flumazenil 1 mg/kg ip 15 min before seizure induction
# mice on rotating rod = experiment: Rotarod test (acute neurotoxicity, muscle relaxant activity); assay type: in vivo; settings: dose 2 mg/kg ip, 30 min after injection, 5 rpm, Mean ± SEM, n = 4–6
# Text: The last in vivo assay was the determination of neurotoxic potential (muscle relaxant activity) of the potent anticonvulsant compounds 8k and 8L by rotarod method. […] […].
compound,measurement,setting,value
"CN1C(=O)CN=C(c2ccccc2)c2cc(Cl)ccc21 [Diazepam, reference compound]",PTZ Number of animals protected / Number of tested animals,[1],0/6
same,Time as seconds to stay on rotating bar,mice on rotating rod,3.80 ± 0.40 s
